Experimental data: the supplement of paper PMC10849652
The list shows a part of the results.

Chains of the proteins cited; added tags and fusions are not shown. Lines headed by an entry give the natural chain unless they say otherwise; changes in a name come on top.
UniProt Q9Y4A5, whole entry, looked up: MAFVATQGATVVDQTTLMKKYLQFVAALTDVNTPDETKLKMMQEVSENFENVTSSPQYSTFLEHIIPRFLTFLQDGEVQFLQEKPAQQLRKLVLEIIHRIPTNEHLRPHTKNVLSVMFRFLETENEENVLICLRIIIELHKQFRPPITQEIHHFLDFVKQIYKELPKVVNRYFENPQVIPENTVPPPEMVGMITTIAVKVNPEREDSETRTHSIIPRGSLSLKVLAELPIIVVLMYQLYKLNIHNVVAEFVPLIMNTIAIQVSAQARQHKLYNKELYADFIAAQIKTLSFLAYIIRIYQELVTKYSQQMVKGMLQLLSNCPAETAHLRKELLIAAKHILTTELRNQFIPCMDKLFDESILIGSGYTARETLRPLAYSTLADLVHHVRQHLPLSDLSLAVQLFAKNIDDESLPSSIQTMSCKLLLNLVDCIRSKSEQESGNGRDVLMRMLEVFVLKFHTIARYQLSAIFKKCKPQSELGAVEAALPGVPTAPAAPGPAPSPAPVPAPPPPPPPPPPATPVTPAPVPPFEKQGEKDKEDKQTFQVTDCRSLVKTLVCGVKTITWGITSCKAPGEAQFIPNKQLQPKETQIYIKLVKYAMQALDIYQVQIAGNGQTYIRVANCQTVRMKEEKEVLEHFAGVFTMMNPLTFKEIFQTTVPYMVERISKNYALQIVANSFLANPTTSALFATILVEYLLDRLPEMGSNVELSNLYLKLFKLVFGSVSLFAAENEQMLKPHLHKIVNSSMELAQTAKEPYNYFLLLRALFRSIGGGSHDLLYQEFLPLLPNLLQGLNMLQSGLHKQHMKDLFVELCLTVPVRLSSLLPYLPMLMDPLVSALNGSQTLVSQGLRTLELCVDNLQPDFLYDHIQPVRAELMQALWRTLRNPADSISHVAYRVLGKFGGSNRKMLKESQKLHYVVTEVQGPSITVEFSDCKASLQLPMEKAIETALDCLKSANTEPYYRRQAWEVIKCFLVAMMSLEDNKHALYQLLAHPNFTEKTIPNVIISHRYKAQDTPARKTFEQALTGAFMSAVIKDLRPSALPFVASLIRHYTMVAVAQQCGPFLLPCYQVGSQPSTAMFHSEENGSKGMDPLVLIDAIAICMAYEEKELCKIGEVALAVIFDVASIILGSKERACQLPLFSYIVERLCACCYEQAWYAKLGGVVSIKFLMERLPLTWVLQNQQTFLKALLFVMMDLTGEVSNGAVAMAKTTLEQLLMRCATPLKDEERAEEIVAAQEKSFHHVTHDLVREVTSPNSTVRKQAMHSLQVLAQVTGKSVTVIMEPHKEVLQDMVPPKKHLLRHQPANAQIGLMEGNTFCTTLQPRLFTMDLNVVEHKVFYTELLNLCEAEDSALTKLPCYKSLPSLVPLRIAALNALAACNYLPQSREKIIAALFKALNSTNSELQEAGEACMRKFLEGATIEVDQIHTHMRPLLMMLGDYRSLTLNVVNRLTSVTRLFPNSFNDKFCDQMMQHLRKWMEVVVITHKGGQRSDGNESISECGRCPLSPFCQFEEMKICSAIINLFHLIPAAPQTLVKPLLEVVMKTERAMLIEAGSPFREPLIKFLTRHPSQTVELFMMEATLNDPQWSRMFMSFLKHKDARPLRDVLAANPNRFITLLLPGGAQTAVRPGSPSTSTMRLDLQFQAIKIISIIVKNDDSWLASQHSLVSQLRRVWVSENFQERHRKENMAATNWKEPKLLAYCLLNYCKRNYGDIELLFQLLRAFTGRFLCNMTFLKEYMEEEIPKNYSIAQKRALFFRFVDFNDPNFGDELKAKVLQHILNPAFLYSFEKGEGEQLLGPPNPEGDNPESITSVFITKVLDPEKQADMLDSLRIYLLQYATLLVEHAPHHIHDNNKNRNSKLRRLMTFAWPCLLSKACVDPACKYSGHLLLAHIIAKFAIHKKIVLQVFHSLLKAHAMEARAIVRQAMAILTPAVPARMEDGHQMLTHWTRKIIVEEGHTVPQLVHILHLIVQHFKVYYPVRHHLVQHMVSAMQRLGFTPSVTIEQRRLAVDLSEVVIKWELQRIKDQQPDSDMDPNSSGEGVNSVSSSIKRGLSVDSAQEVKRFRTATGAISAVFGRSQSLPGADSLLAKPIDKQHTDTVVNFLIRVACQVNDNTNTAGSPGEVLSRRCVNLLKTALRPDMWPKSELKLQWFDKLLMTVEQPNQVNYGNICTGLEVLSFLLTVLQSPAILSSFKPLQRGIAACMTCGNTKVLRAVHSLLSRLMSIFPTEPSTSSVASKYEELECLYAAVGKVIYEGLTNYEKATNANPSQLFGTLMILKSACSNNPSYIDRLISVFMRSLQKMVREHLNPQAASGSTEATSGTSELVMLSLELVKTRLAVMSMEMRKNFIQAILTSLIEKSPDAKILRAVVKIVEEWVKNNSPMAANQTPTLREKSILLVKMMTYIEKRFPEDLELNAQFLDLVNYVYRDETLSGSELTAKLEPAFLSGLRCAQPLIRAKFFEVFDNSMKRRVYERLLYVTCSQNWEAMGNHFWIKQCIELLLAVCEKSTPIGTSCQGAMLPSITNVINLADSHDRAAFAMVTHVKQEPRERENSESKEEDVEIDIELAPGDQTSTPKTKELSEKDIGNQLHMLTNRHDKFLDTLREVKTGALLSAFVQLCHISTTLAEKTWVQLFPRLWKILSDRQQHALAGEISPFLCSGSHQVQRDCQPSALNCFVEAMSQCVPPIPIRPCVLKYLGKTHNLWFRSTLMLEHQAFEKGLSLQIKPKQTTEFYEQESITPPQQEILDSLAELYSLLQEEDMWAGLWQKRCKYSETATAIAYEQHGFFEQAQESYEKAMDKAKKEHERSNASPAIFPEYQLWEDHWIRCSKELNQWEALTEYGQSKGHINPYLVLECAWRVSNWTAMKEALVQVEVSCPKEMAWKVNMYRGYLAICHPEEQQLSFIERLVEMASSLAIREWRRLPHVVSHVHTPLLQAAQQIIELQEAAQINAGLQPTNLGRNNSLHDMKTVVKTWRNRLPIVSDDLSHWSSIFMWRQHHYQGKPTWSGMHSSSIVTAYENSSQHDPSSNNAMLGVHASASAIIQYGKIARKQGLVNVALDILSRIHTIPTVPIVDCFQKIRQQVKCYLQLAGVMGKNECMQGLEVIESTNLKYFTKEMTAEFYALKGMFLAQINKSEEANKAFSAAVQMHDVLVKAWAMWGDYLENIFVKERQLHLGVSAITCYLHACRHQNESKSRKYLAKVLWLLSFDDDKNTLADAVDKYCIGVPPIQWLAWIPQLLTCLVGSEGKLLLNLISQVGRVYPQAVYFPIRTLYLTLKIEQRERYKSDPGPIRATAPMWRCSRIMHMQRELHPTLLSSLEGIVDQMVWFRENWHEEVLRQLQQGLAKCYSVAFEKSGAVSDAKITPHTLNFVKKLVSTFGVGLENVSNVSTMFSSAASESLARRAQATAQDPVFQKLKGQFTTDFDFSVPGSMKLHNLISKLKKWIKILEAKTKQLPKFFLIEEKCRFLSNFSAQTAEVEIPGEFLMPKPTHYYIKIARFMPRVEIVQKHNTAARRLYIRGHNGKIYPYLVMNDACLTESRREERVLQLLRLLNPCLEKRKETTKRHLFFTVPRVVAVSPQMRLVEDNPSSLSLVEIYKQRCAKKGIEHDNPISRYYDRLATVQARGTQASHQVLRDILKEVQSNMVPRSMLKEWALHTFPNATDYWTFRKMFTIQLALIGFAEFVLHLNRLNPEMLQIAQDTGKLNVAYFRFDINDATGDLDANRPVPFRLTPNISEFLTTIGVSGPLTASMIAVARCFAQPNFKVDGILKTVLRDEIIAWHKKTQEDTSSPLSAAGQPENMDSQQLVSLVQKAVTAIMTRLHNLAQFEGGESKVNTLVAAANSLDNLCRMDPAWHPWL
UniProt Q9H4I3: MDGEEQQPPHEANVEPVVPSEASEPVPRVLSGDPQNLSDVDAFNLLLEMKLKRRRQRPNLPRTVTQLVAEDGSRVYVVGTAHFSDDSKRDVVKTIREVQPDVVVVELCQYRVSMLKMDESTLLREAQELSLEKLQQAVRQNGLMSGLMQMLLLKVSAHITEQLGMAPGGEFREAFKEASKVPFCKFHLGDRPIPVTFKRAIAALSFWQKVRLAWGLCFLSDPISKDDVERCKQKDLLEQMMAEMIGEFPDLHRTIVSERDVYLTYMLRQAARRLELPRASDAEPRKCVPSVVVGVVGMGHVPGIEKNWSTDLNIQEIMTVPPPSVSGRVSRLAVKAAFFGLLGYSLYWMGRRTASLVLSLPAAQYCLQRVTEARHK
UniProt Q6ZVM7: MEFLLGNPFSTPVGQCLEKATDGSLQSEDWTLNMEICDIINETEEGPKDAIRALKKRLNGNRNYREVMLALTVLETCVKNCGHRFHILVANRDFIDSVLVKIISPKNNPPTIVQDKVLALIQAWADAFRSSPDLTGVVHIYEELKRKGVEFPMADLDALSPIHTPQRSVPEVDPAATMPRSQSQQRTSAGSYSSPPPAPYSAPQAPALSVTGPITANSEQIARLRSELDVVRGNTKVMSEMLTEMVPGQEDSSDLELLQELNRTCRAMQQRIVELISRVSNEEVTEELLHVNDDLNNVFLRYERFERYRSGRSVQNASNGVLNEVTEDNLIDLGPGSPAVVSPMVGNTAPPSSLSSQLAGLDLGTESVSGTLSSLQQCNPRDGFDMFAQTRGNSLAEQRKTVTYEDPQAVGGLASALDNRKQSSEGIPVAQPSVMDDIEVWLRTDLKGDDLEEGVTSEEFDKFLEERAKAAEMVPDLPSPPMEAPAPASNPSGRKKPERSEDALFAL
UniProt Q92973: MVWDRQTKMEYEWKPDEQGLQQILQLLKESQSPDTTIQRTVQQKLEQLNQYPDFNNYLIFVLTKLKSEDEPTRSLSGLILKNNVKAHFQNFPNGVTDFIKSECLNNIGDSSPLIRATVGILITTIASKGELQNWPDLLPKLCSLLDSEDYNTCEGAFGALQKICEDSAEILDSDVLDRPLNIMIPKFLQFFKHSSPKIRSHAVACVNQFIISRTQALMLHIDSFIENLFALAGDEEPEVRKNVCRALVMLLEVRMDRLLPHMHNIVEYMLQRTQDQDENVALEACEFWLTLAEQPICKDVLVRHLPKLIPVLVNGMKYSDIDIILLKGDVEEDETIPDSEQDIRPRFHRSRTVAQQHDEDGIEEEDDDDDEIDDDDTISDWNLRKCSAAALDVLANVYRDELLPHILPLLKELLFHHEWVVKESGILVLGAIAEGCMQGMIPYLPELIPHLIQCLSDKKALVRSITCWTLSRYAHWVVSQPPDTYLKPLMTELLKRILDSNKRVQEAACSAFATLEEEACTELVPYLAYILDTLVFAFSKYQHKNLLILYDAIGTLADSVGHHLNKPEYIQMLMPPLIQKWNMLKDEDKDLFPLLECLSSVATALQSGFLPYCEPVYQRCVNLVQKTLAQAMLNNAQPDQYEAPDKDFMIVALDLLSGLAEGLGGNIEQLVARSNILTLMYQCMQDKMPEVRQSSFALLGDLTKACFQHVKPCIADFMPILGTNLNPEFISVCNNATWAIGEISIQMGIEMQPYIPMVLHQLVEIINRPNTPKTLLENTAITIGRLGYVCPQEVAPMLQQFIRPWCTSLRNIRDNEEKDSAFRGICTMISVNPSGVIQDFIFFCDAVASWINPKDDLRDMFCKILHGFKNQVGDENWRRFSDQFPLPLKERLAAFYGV
UniProt Q6Q0C0: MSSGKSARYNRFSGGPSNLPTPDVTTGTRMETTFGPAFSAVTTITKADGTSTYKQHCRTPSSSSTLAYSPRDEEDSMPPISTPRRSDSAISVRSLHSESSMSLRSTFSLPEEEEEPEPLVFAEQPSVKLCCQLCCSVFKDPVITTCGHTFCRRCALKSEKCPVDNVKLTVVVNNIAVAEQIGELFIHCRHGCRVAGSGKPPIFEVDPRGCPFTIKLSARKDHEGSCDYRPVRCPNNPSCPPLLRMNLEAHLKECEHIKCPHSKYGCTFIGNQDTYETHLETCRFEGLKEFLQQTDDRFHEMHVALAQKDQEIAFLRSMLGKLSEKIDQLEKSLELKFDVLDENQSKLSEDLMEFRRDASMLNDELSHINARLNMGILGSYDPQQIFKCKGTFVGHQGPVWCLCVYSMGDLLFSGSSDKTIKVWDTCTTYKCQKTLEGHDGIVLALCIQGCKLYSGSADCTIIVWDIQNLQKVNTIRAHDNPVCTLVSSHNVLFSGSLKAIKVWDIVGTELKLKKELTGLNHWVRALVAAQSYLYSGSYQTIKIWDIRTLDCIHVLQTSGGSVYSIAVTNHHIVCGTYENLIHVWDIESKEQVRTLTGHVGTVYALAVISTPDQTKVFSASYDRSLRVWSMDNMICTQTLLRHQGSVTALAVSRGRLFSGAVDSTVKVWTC
UniProt Q9P0U1: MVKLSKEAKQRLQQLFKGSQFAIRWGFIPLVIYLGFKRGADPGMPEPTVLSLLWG

Tests used:
Assay in all cases: log2 fold change, soluble protein after heating vs DMSO (PISA); higher = thermal stabilisation; K562 cells, 10 uM, 30 min; active = over 0.2 and 3.5 SD of the protein, either way, in both replicates (recomputed)
[1] = compound: NC(=O)Nc1cc(-c2cccc(F)c2)sc1C(=O)N[C@H]1CCCNC1
Outline: (§1)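 For each measurement, 10 μM compound was applied for 30 min to K562 cells at 2×10^6 cells/mL. Aliquots were heated for 3 min across 48°C-58°C, pooled, and extracted in PBS with 0.5% NP-40 at 4°C; the supernatant after 21,000xg for 90 min was soluble protein. This was quantified by TMTpro 16plex LC-MS/MS with channel sums equalised, and thermal stability was reported relative to control samples from duplicates, on a log2 fold-change scale.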

[2] = compound: NC(=O)c1cnc(N[C@@H]2CCCC[C@@H]2N)nc1Nc1cccc(-n2nccn2)c1
Outline: as §1

[3] = compound: NC1(c2ccc(-c3nc4ccn5c(=O)[nH]nc5c4cc3-c3ccccc3)cc2)CCC1
Outline: as §1

[4] = compound: NCC(=O)Nc1ccc(-n2nc(C(F)(F)F)cc2-c2ccc3c(ccc4ccccc43)c2)cc1
Outline: as §1

[5] = compound: Nc1ccccc1NC(=O)c1ccc(CNC(=O)OCc2cccnc2)cc1 [entinostat]
Outline: as §1

[6] = compound: O=C(CCCCCCC(=O)Nc1ccccc1)NO [vorinostat]
Outline: as §1

[7] = compound: O=C(CCCCCCNC(=O)c1cnc(N(c2ccccc2)c2ccccc2Cl)nc1)NO [citarinostat]
Outline: as §1

[8] = compound: O=C(O)c1ccc2c(c1)nc(Nc1cccc(Cl)c1)c1ccncc12 [silmitasertib]
Outline: as §1

[9] = compound: O=C1NC(=O)C(c2cnc3ccccn23)=C1c1cn2c3c(cc(F)cc13)CN(C(=O)N1CCCCC1)CC2
Outline: as §1

[10] = compound: c1cc(OCCN2CCCCC2)cc(-c2n[nH]c3ccc(-c4nnc[nH]4)cc23)c1
Outline: as §1

Target	log2 fold change [1]	log2 fold change [2]	log2 fold change [3]	log2 fold change [4]	log2 fold change [5]	log2 fold change [6]	log2 fold change [7]	log2 fold change [8]	log2 fold change [9]	log2 fold change [10]
TSC22D1 (UniProt Q15714)	inactive: 0.017	inactive: -0.046	inactive: -0.075	inactive: -0.085	inactive: 0.002	inactive: 0.013	inactive: 0.074	inactive: 0.006	inactive: 0.01	inactive: -0.036
TRRAP (UniProt Q9Y4A5)	inactive: 0.02	inactive: -0.013	inactive: -0.042	inactive: 0.008	inactive: -0.037	inactive: -0.02	inactive: 0.012	inactive: 0.018	inactive: -0.011	inactive: -0.044
TOR3A (UniProt Q9H497)	inactive: -0.015	inactive: 0.014	inactive: -0.076	inactive: 0.043	inactive: 0.005	inactive: 0.023	inactive: 0.022	inactive: 0.029	inactive: -0.079	inactive: -0.108
TRAPPC10 (UniProt P48553)	inactive: -0.128	inactive: -0.094	inactive: -0.062	inactive: 0.02	inactive: -0.032	inactive: 0.084	inactive: -0.028	inactive: 0.018	inactive: -0.082	inactive: -0.04
TPM3 isoform 4 (UniProt P06753)	inactive: 0.017	inactive: -0.013	inactive: -0.025	inactive: 0.124	inactive: -0.023	inactive: -0.154	inactive: 0.017	inactive: 0.041	inactive: -0.032	inactive: -0.022
TRIO (UniProt O75962)	inactive: -0.093	inactive: -0.042	inactive: -0.173		inactive: -0.029		inactive: -0.022	inactive: -0.042	inactive: -0.067	inactive: 0.071
TNIK isoform 6 (UniProt Q9UKE5)	inactive: 0.065	inactive: -0.074	inactive: 0.005	inactive: 0.012	inactive: 0.045	inactive: 0.034	inactive: -0.015	inactive: 0.016	inactive: 0.016	inactive: -0.069
TP53BP2 isoform 3 (UniProt Q13625)	inactive: 0.035	inactive: -0.055		inactive: -0.024	inactive: 0.061	inactive: -0.015			inactive: -0.053	
TRABD (UniProt Q9H4I3)	inactive: 0.008	inactive: -0.006	inactive: 0.1	inactive: 0.157	inactive: -0.022	inactive: 0.009	inactive: -0.014	inactive: 0.188	inactive: 0.055	inactive: -0.026
TRPT1 isoform 4 (UniProt Q86TN4)	inactive: 0.037	inactive: 0.235	inactive: 0		inactive: 0.123		inactive: 0.029	inactive: 0.059		inactive: -0.025
TOM1L2 (UniProt Q6ZVM7)	inactive: 0.089	inactive: -0.136		inactive: -0.098	inactive: 0.036				inactive: -0.043	
TOR1AIP1 (UniProt Q5JTV8)	inactive: 0.026	inactive: -0.061	inactive: 0.039		inactive: -0.061	inactive: 0.098	inactive: 0.025	inactive: 0.016	inactive: -0.156	inactive: -0.118
TRNT1 (UniProt Q96Q11)	inactive: -0.037	inactive: -0.018	inactive: -0.101	inactive: -0.064	inactive: -0.022	inactive: 0.051	inactive: 0.062	inactive: -0.034	inactive: -0.127	inactive: -0.017
TRIM38 (UniProt O00635)	inactive: -0.362	inactive: -0.059	inactive: -0.04	inactive: -0.088	inactive: 0.114	inactive: -0.061		inactive: -0.051	inactive: -0.101	
TNRC6B (UniProt Q9UPQ9)	inactive: -0.402	inactive: 0.026			inactive: 0.123	inactive: 0.121			inactive: 0.022	
TSC22D2 (UniProt O75157)	inactive: -0.095	inactive: -0.038	inactive: -0.021	inactive: -0.073	inactive: -0.083	inactive: -0.148	inactive: -0.02	inactive: 0.026	inactive: -0.074	inactive: -0.015
TRIM25 (UniProt Q14258)	inactive: -0.001	inactive: 0.027	inactive: 0.165	inactive: 0.056	inactive: 0.046	inactive: 0.01	inactive: -0.001	inactive: 0.192	inactive: 0.178	inactive: -0.148
TNPO1 (UniProt Q92973)	inactive: 0.003	inactive: -0.039	inactive: -0.157	inactive: -0.06	inactive: 0.044	inactive: 0.051	inactive: 0.033	inactive: 0.025	inactive: -0.021	inactive: -0.066
TRIM28 (UniProt Q13263)	inactive: -0.006	inactive: -0.008	inactive: -0.038	inactive: -0.007	inactive: 0.038	inactive: 0.032	inactive: 0.036	inactive: 0.036	inactive: -0.048	inactive: -0.009
TRIM56 (UniProt Q9BRZ2)	inactive: -0.036	inactive: -0.025	inactive: 0.176		inactive: 0.13	inactive: 0.05	inactive: -0.096	inactive: 0.104	inactive: 0.239	inactive: -0.21
TRAF7 (UniProt Q6Q0C0)	inactive: -0.03	inactive: -0.019	inactive: -0.181	inactive: 0.188	inactive: -0.035			inactive: -0.002	inactive: -0.049	
TSC2 (UniProt P49815)	inactive: -0.038	inactive: -0.074	inactive: 0.214		inactive: -0.061	inactive: 0.125	inactive: 0.273	inactive: 0.107	inactive: 0.105	active: -0.594
TOMM7 (UniProt Q9P0U1)	inactive: -0.021		inactive: 0.024	inactive: -0.05	inactive: 0.018	inactive: -0.091	inactive: -0.001	inactive: 0.029	inactive: -0.069	inactive: -0.062
TRPC4AP (UniProt Q8TEL6)	inactive: 0.035	inactive: -0.134	inactive: 0.013	inactive: -0.036	inactive: 0.195	inactive: 0.057		inactive: -0.063	inactive: -0.041	

Two entries picked at random from the list so far, as already listed:
Target	log2 fold change [1]	log2 fold change [2]	log2 fold change [3]	log2 fold change [4]	log2 fold change [5]	log2 fold change [6]	log2 fold change [7]	log2 fold change [8]	log2 fold change [9]	log2 fold change [10]
TSC22D2 (UniProt O75157)	inactive: -0.095	inactive: -0.038	inactive: -0.021	inactive: -0.073	inactive: -0.083	inactive: -0.148	inactive: -0.02	inactive: 0.026	inactive: -0.074	inactive: -0.015
TSC2 (UniProt P49815)	inactive: -0.038	inactive: -0.074	inactive: 0.214		inactive: -0.061	inactive: 0.125	inactive: 0.273	inactive: 0.107	inactive: 0.105	active: -0.594
